{"sequences": {"note": "By UniProt entry, the sequences of proteins in these tests, tags left out. Where a name states a change or a piece, a line headed by the entry shows the natural chain unless it says otherwise. Chains listed by the source or under a name are the forms on record and can include a tag or linker.", "UniProt P38398": "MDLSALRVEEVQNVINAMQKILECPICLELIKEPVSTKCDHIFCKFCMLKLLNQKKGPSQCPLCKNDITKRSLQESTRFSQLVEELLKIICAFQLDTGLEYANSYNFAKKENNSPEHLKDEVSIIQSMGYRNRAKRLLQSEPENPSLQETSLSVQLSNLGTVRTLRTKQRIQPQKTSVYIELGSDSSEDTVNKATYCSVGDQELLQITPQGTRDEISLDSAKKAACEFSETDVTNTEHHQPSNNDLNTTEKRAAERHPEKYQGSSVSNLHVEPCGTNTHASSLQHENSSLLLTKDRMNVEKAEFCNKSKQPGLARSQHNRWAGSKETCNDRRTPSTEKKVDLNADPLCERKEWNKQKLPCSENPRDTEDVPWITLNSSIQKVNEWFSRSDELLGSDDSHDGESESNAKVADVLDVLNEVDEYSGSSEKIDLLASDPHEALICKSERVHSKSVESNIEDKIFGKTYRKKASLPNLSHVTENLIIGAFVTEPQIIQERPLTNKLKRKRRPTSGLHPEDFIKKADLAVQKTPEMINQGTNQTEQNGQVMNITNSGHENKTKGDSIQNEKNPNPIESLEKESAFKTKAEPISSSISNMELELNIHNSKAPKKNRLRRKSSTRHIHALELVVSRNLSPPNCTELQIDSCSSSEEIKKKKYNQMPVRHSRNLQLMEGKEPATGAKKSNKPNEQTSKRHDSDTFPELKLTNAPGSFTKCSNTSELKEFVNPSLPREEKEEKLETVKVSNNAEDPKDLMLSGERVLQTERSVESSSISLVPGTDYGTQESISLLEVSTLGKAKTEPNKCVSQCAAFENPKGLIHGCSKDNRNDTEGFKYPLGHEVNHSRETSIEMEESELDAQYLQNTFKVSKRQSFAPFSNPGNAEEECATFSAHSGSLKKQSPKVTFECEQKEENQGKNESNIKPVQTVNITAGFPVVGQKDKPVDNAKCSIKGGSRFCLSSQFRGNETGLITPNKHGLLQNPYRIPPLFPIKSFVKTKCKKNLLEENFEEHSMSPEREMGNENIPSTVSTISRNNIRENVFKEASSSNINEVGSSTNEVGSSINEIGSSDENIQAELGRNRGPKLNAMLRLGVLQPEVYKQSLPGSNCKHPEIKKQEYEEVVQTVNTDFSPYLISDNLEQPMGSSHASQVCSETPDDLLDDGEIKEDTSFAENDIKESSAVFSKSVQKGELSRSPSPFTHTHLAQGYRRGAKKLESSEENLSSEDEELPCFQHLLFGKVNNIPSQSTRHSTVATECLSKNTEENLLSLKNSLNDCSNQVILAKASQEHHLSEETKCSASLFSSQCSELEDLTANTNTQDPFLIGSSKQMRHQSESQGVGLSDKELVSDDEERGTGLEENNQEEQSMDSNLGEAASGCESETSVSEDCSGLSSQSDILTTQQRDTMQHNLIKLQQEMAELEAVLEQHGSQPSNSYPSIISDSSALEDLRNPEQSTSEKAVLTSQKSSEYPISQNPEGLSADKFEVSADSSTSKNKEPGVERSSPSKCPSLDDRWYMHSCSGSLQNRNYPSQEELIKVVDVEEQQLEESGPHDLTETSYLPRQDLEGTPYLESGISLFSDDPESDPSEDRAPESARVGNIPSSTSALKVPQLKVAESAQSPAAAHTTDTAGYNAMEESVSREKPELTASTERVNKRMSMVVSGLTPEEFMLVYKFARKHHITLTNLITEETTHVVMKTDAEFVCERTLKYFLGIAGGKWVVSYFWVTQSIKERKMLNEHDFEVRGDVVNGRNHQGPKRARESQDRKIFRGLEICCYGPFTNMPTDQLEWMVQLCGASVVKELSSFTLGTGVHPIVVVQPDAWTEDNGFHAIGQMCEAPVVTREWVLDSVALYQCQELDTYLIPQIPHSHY", "UniProt P78347": "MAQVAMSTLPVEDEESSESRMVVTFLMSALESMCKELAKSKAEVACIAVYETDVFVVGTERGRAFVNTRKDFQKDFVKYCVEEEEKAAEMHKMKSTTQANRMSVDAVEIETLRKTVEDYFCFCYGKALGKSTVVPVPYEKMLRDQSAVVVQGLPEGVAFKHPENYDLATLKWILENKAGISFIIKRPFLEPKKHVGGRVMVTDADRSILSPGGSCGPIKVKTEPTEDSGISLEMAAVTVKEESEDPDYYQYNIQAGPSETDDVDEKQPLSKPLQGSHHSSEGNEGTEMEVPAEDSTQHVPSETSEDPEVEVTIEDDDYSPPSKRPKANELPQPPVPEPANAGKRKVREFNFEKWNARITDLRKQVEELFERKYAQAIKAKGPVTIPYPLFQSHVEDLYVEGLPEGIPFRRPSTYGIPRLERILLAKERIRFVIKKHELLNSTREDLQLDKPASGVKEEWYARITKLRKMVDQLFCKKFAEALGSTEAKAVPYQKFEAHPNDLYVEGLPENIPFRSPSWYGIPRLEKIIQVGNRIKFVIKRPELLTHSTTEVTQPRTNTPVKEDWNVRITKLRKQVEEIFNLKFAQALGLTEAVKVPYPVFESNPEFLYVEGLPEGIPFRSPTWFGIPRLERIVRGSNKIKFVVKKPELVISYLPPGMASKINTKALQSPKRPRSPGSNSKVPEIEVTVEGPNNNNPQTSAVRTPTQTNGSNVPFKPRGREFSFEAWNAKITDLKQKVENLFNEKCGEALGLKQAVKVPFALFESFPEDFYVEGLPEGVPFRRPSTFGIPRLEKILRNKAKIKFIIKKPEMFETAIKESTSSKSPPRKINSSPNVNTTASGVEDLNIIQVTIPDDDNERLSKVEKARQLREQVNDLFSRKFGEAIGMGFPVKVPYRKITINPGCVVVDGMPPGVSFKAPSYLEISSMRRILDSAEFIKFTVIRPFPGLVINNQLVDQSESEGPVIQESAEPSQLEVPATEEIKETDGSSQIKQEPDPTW", "GST-tagged TFII-I (wild type) (P78347-2, form named)": "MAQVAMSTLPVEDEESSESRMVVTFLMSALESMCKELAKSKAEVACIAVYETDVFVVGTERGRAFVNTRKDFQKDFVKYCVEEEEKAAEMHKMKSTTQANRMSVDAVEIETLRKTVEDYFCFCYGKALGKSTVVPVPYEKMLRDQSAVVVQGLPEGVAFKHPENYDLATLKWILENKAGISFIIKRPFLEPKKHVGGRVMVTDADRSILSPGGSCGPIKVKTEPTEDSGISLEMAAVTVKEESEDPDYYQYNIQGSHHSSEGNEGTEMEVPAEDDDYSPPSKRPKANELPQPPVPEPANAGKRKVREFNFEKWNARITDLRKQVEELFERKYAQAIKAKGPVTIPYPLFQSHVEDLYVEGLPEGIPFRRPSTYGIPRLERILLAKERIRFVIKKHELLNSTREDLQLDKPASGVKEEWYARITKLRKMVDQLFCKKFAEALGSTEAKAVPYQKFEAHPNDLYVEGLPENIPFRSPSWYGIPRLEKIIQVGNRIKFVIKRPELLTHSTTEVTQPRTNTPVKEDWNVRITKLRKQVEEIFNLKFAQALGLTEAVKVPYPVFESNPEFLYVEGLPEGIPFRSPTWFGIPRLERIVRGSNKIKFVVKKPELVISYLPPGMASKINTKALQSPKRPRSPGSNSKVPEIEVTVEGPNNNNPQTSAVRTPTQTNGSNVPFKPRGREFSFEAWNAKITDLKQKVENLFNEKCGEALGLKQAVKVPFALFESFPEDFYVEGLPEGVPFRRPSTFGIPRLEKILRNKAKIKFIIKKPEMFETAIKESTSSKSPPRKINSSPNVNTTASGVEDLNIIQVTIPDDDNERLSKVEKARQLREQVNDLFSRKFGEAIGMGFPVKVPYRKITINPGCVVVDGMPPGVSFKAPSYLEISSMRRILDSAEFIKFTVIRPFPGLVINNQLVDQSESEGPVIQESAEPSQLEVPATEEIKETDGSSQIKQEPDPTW"}, "source": "paper PMC3078593", "key": {"[1]": {"target": "Flag-tagged BRCA1 (UniProt P38398)", "assay": "condition: only cytoplasmic fraction of the COS7 cells; co-IP; cytoplasmic fraction of transfected COS7 cells; IP of BRCA1, blot for TFII-I"}, "[2]": {"target": "Flag-tagged BRCA1 (UniProt P38398)", "assay": "co-IP; nuclear extracts of COS7 cells transfected with Flag-tagged BRCA1 and GST-tagged TFII-I; IP with anti-FLAG M2 agarose, blot with anti-GST antibodies"}, "[3]": {"target": "BRCA1 (endogenous, HeLa cells) (human (endogenous in HeLa)) (UniProt P38398)", "assay": "co-IP; whole-cell extracts of HeLa cells; IP with anti-BRCA1 antibodies (epitope at the carboxyl-terminus of BRCA1) and protein G sepharose, blot with anti-TFII-I antibodies; reciprocal IP also performed"}}, "note": "Results are given in words; binding and its absence hold for the method and conditions named. In cells and extracts the contact can be indirect. Some binding calls cover weakened binding; strength is not graded here."}
{"substance": "GST-tagged TFII-I (wild type) (from UniProt P78347-2 1-957)", "values": [{"measurement": "binding", "setting": "[1]", "value": "no binding"}, {"measurement": "binding", "setting": "[2]", "value": "binds"}]}
{"substance": "TFII-I (endogenous, HeLa cells) (from UniProt P78347 1-998)", "values": [{"measurement": "binding", "setting": "[3]", "value": "binds"}]}
